The other results are listed elsewhere or left out.
compound: Cc1sc2c(c1C)C(c1ccc(Cl)cc1)=N[C@@H](CC(=O)OC(C)(C)C)c1nnc(C)n1-2; test: log2 fold change, soluble protein after heating vs DMSO (PISA); higher = thermal stabilisation; K562 cells, 10 uM, 30 min; active = over 0.2 and 3.5 SD of the protein, either way, in both replicates (recomputed)
Procedure, shortened: (§1)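 K562 cells at 2×10^6 cells/mL were given 10 μM compound for 30 min. Aliquots then went through 3 min of heating across 48°C-58°C, were pooled, and were extracted in PBS with 0.5% NP-40 at 4°C, and the supernatant after 21,000xg for 90 min was quantified by TMTpro 16plex LC-MS/MS with channel sums equalised. Thermal stability relative to control samples, from duplicates, is given as log2 fold change.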

Amino acid sequences for entries named in this document (tags omitted). A change or cut given only in a name is not applied to a line headed by its entry.
UniProt P61981: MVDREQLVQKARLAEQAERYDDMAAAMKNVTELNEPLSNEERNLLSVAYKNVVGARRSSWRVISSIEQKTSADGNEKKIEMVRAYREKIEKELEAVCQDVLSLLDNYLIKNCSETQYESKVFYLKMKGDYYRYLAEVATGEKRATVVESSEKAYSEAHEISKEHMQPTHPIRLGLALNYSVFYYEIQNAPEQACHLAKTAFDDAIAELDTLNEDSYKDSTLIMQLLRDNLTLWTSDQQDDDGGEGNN
UniProt Q86U90: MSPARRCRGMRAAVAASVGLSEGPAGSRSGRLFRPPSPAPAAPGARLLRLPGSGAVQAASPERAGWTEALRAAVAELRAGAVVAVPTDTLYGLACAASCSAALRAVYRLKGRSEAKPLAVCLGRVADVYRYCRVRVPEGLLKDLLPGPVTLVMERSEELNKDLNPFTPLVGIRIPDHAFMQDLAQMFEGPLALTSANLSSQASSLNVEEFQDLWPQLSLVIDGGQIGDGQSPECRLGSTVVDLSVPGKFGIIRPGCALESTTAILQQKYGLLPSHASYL
UniProt Q5W0Z9: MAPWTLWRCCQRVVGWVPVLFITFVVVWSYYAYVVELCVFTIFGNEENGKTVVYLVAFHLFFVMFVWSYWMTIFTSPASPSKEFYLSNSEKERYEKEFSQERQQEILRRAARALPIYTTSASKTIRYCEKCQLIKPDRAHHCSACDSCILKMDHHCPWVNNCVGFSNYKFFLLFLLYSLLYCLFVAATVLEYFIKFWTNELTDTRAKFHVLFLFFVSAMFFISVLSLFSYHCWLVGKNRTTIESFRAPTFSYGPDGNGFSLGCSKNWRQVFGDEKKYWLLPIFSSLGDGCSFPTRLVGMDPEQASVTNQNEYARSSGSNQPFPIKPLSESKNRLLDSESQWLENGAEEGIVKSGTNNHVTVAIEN
UniProt Q7Z739: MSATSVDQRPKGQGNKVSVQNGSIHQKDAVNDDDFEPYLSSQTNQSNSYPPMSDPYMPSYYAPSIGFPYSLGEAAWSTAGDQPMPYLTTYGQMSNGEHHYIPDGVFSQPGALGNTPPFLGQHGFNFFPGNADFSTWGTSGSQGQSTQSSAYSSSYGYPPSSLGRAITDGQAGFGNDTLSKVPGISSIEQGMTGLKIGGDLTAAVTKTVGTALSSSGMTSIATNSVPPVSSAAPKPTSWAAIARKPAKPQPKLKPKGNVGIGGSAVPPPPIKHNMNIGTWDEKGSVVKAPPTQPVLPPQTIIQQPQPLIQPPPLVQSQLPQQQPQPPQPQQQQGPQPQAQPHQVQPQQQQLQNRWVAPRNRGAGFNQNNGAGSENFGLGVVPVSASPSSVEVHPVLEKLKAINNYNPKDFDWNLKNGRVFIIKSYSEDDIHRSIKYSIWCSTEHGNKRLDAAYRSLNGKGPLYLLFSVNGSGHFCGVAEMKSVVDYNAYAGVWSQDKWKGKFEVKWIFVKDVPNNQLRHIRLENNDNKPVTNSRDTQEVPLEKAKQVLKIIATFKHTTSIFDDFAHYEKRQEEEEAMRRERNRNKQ
UniProt Q13426: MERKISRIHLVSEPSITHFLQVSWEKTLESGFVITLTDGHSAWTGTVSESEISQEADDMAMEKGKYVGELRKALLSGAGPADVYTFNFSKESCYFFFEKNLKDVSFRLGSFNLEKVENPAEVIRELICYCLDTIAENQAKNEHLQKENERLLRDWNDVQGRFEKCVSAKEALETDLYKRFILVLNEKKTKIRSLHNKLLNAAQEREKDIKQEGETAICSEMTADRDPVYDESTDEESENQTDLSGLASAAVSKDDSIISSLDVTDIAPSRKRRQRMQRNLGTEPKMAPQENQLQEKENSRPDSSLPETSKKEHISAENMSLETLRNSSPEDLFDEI
UniProt Q9Y5A9: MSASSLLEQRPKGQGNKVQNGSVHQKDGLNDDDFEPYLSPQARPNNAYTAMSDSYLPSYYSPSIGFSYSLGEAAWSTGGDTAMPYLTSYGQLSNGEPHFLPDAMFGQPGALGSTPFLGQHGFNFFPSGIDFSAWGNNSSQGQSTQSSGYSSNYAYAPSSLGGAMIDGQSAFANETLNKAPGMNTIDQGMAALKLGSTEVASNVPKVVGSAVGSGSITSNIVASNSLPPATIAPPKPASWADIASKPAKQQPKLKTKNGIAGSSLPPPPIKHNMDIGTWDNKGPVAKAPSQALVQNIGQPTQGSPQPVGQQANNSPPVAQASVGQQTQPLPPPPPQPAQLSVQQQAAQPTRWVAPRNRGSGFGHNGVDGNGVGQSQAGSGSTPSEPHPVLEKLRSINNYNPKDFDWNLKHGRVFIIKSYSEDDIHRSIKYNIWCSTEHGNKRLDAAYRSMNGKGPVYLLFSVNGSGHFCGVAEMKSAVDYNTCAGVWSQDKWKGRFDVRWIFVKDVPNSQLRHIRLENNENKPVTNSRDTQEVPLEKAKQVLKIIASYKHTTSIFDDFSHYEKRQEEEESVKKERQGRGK
UniProt O95619, whole entry, looked up: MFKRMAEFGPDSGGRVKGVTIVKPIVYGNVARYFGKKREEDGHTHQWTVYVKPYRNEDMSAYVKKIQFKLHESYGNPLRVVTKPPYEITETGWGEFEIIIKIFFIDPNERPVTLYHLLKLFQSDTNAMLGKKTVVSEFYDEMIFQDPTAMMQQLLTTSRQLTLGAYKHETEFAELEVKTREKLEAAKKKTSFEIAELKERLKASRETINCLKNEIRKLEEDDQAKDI
UniProt O43298: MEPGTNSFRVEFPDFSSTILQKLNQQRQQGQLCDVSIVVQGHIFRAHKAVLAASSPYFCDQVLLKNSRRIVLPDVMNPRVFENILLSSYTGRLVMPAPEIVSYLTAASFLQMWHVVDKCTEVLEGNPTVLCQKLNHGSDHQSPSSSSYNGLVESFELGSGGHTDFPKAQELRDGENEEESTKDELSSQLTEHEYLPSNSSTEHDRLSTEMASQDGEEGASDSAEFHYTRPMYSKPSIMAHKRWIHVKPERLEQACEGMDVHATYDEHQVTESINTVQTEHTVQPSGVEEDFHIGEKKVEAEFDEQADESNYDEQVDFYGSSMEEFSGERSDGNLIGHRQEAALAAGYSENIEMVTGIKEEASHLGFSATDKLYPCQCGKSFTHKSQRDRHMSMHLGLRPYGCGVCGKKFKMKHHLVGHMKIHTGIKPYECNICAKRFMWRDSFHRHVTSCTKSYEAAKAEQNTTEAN
UniProt Q8IZN3: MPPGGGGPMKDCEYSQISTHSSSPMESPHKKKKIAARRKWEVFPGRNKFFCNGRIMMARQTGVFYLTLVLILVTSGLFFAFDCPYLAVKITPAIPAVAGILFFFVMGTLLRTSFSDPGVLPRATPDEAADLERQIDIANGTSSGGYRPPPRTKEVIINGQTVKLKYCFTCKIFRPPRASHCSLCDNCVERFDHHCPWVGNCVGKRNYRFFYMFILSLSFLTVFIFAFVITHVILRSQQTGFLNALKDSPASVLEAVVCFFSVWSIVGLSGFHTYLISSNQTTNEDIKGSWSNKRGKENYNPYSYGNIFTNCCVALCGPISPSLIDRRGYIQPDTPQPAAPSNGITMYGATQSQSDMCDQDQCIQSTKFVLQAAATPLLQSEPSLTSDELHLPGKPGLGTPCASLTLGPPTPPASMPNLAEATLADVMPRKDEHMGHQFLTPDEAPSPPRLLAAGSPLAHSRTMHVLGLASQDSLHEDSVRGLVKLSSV
UniProt Q96TA2: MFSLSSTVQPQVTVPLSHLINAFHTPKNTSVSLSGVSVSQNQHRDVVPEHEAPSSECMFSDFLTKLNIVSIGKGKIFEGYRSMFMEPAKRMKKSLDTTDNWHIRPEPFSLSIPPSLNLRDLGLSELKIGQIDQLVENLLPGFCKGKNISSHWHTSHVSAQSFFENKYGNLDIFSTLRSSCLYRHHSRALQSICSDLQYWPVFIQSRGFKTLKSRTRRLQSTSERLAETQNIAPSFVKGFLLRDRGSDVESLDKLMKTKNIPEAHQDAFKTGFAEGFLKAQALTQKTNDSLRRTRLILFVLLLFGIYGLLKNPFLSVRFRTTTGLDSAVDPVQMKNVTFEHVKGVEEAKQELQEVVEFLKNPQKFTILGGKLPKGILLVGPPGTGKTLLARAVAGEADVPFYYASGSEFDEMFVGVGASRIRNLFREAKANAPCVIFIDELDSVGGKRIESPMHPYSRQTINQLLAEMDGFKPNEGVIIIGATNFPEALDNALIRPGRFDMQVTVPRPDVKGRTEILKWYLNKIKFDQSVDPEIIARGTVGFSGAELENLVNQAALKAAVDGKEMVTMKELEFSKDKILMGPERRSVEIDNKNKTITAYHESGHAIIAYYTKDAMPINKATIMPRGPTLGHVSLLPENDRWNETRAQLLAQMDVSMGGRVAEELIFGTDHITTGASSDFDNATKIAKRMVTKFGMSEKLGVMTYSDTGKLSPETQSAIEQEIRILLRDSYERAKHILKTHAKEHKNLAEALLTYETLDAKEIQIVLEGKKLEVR
UniProt O15498: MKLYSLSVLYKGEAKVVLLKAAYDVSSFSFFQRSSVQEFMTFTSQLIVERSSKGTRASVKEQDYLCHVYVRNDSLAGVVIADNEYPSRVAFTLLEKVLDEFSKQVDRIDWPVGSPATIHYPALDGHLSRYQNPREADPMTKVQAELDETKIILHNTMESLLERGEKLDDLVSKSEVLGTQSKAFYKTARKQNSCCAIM
UniProt P13010: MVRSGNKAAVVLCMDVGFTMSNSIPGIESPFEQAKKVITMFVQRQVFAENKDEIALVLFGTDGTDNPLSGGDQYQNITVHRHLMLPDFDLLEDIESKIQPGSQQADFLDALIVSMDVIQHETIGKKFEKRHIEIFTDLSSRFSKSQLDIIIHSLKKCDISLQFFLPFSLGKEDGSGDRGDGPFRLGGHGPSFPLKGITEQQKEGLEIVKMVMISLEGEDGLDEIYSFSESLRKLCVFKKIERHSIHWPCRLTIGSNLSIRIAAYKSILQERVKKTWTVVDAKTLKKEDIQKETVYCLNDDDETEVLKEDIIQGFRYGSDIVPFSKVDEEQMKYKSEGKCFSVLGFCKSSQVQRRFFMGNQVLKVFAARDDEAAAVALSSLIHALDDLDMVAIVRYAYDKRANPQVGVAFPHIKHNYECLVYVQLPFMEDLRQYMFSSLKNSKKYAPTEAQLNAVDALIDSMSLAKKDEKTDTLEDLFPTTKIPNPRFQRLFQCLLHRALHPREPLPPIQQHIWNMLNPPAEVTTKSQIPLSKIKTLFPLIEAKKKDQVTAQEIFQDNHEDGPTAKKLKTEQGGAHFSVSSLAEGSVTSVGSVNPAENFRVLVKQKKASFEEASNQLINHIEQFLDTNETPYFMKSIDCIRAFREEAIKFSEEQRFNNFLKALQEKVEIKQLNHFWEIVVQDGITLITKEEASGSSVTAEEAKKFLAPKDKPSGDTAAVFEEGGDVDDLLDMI
UniProt P52747: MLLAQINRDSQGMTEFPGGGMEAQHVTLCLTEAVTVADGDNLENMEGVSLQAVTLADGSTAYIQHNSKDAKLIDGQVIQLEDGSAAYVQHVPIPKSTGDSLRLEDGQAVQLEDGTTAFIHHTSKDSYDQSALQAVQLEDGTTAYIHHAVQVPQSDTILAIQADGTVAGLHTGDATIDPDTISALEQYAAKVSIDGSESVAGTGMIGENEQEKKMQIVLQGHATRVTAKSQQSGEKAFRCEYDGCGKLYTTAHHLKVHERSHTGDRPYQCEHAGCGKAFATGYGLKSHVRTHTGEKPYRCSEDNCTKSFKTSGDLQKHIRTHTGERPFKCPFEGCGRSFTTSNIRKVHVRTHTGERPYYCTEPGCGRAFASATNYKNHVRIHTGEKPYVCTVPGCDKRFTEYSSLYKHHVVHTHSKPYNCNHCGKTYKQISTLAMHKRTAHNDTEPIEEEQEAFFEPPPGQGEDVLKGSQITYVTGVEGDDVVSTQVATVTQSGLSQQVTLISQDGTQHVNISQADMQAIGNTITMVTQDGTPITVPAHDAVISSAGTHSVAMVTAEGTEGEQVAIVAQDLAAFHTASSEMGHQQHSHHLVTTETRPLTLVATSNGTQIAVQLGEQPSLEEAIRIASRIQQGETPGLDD
UniProt P07947, whole entry, looked up: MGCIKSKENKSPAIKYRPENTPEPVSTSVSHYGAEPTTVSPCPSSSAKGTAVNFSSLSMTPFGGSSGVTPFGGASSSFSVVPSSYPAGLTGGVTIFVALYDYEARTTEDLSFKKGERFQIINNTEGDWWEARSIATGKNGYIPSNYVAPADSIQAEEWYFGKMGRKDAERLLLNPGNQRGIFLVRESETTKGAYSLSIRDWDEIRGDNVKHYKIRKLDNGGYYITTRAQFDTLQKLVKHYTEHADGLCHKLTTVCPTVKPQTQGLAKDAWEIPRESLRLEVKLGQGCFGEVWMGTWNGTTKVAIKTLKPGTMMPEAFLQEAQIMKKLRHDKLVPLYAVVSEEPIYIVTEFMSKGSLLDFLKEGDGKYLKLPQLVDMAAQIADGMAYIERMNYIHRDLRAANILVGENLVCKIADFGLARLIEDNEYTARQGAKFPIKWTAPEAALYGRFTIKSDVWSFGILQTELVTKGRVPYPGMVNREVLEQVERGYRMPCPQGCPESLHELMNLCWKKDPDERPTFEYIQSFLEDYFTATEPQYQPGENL

Target	log2 fold change
YWHAG (UniProt P61981)	inactive: -0.014
YWHAZ (UniProt P63104)	inactive: -0.033
ZC3H13 (UniProt Q5T200)	inactive: 0.169
YRDC (UniProt Q86U90)	inactive: -0.017
ZMYM1 (UniProt Q5SVZ6)	inactive: -0.012
ZBTB3 (UniProt Q9H5J0)	inactive: -0.06

compound: c1ccc([C@@H]2C[C@H]2NC2CCNCC2)cc1; test: as above
Procedure, shortened: as §1

Target	log2 fold change
YAE1 (UniProt Q9NRH1)	inactive: 0.095
ZDHHC20 (UniProt Q5W0Z9)	inactive: 0.067
YTHDF3 (UniProt Q7Z739)	inactive: 0.003
XXYLT1 (UniProt Q8NBI6)	inactive: -0.067
XRCC4 (UniProt Q13426)	inactive: 0.004
ZC3H4 (UniProt Q9UPT8)	inactive: 0.042
ZFYVE1 (UniProt Q9HBF4)	inactive: 0.014
YTHDF2 (UniProt Q9Y5A9)	inactive: -0.019
YEATS4 (UniProt O95619)	inactive: 0.077
ZDHHC5 (UniProt Q9C0B5)	inactive: 0.077
XRN2 (UniProt Q9H0D6)	inactive: 0.106
ZBTB43 (UniProt O43298)	inactive: -0.08
ZFPL1 (UniProt O95159)	inactive: -0.032
ZDHHC14 (UniProt Q8IZN3)	inactive: -0.061
YME1L1 (UniProt Q96TA2)	inactive: 0.032
YKT6 (UniProt O15498)	inactive: -0.01
XRCC5 (UniProt P13010)	inactive: -0.003
XPR1 (UniProt Q9UBH6)	inactive: 0
ZFAND5 (UniProt O76080)	inactive: 0.143
ZBTB21 (UniProt Q9ULJ3)	inactive: 0.006
YBX3 (UniProt P16989)	inactive: 0.022
ZNF143 (UniProt P52747)	inactive: 0.107
YES1 (UniProt P07947)	inactive: -0.038
XPO1 (UniProt O14980)	inactive: -0.013
YWHAG (UniProt P61981)	inactive: -0.002
YWHAZ (UniProt P63104)	inactive: -0.025
ZC3H13 (UniProt Q5T200)	inactive: 0.183
YRDC (UniProt Q86U90)	inactive: -0.024
ZMYM1 (UniProt Q5SVZ6)	inactive: -0.011
ZBTB3 (UniProt Q9H5J0)	inactive: -0.001

Source: the supplement of paper PMC10849652
